Consider one molecule from doi:10.1101/2022.05.24.493272.

Protein sequences, listed by entry. Tags and fused reporters are not part of them.
UniProt P06730: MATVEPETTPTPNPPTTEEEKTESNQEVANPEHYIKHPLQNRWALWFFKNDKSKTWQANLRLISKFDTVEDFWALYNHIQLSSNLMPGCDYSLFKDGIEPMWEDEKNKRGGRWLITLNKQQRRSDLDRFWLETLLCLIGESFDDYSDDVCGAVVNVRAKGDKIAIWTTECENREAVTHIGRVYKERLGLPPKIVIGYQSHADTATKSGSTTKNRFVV

No constants are given. Whether binding was seen depends on the method and setting. In cells and extracts the contact can be indirect. Some results given as binding are weak or reduced against the parent protein; the word gives no strength.

Experiment [1] concerns the target eukaryotic initiation factor eIF4E (human (endogenous in HCT-15 and SNG-M)) (UniProt P06730). Description: co-IP.
For experiment [2] the target is unchanged. In words: pull-down.

B1: eIF4E binding protein 2 (4E-BP2) (protein, UniProt Q13542 1-120)
chain: MSSSAGSGHQPSQSRAIPTRTVAISDAAQLPHDYCTTPGGTLFSTTPGGTRIIYDRKFLLDRRNSPMAQTPPCHLPNIPGVTSPGTLIEDSKVEVNNLNNLNNHDRKHAVGDDAQFEMDI
As to B1, the binding result in experiment [1] and in experiment [2] was “binds” throughout.
